Data taken from ChEMBL document CHEMBL3988442, “University of Dundee, Small-Polar-MMV Screening Library” (2021).

By UniProt entry, the sequences of proteins in these tests, tags left out. Residues count along the entry.
UniProt P9WPC5, whole entry: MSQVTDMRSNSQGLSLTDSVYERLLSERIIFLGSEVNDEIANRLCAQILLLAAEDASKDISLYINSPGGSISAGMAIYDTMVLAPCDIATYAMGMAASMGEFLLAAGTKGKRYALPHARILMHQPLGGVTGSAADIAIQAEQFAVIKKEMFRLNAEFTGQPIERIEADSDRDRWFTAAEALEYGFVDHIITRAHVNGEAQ
UniProt P9WPC3, whole entry partner: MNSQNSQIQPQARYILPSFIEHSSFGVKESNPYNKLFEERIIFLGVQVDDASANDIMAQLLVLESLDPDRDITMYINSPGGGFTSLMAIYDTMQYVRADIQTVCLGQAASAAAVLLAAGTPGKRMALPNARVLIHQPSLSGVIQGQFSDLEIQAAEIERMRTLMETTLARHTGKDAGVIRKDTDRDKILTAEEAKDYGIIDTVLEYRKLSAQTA
UniProt Q4DA54, 1-478: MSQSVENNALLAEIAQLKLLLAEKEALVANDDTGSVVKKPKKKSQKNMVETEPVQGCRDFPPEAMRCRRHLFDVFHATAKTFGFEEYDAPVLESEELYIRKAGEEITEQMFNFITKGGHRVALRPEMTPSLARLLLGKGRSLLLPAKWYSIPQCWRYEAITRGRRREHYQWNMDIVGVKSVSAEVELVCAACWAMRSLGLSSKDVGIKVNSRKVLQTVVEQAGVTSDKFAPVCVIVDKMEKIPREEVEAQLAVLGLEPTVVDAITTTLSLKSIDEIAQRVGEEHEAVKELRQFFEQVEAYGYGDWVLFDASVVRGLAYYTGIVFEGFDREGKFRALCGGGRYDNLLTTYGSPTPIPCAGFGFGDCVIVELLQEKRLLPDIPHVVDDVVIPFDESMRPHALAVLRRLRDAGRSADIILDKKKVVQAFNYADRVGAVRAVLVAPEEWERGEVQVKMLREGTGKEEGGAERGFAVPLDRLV
UniProt Q8IDJ8, 1-583: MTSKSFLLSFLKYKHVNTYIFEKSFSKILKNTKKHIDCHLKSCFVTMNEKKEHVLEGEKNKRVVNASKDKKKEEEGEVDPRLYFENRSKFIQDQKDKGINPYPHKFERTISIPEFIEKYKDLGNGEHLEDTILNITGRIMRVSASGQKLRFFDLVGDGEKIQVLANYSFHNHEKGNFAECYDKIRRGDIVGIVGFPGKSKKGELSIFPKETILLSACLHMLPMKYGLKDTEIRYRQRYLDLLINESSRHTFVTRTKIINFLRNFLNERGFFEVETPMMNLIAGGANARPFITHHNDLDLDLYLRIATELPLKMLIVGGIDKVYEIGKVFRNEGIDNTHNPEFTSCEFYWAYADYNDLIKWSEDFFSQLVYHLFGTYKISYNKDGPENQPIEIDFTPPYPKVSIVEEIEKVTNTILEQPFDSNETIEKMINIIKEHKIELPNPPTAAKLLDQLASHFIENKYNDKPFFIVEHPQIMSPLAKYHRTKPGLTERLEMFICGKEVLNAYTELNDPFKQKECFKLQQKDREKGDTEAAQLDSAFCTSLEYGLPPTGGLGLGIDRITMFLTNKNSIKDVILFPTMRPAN
UniProt I6X8D2, whole entry: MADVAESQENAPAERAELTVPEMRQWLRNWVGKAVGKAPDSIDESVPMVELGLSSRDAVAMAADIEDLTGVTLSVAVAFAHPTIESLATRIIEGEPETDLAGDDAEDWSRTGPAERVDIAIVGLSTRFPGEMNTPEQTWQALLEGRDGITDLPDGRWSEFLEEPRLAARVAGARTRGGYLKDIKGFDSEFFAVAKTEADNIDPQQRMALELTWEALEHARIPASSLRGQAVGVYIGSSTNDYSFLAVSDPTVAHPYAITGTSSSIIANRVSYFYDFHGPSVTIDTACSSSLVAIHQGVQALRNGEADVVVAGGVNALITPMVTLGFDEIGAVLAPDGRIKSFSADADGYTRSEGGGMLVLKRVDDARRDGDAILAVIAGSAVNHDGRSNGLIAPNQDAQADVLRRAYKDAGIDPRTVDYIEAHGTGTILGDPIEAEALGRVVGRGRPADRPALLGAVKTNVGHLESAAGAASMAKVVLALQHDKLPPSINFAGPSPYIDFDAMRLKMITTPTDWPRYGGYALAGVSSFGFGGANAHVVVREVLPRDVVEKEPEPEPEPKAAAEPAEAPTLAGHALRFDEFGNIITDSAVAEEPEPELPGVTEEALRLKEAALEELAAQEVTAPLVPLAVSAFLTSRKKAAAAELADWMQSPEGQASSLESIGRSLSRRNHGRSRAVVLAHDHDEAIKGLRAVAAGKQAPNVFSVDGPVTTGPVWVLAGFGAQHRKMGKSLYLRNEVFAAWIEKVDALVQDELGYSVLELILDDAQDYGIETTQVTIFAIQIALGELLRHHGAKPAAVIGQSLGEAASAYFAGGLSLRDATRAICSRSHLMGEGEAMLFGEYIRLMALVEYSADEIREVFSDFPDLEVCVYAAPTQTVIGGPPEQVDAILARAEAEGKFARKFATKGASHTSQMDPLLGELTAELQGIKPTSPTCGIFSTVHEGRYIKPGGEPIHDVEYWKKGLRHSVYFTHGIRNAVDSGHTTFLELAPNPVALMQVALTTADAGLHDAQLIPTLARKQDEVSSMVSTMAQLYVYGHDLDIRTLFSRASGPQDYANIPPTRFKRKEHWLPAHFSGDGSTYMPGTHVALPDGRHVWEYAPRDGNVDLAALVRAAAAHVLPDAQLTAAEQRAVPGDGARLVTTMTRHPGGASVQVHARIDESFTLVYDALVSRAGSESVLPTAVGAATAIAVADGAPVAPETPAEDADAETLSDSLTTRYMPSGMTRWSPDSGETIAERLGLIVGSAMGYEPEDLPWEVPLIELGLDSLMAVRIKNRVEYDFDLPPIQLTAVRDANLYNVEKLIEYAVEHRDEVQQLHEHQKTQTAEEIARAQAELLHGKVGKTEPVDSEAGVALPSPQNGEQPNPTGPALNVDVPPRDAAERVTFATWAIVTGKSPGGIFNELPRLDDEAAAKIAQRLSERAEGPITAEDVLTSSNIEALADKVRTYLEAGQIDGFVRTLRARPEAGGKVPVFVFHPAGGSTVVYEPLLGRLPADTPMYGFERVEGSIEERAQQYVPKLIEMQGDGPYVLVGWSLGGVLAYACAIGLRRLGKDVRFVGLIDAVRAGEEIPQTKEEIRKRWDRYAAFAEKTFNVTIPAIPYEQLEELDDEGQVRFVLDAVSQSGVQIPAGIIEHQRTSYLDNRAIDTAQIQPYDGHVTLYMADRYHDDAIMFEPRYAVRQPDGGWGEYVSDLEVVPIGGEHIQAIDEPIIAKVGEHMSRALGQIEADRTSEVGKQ

Each number is a percent effect as filed.
The record does not define 0% and 100%; most values in the screen are far below 50% and negative numbers occur (in some assays of this library far below -100).
Compounds were drawn at random from those tested, without regard to their results.

ClpP1P2: 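Protease assay of ClpP1P2, read by the AMC dye that it sets free. Target: ClpP1P2, Mycobacterium tuberculosis (UniProt P9WPC5 and UniProt P9WPC3). Tested at 50 µM. Higher reads as stronger inhibition, judged from the few compounds that gave an IC50. Most other retested compounds had strongly negative values. About 69,000 compounds were tested under these conditions; 0.015% (about 10) showed 50% or more at least once.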
TcHisRS: 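Enzyme assay of histidyl-tRNA synthetase; the read-out is not stated. Target: Histidine-tRNA ligase, Trypanosoma cruzi CL Brener (UniProt Q4DA54). Compounds at 30 µM. Direction is inferred from retests: higher values go with stronger inhibition. Size under these conditions: about 69,000 compounds, about 31 of them at 50% or above in at least one test.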
PfKRS1: 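Lysine-tRNA ligase, Plasmodium falciparum 3D7 (UniProt Q8IDJ8). Enzyme assay of the cytosolic lysyl-tRNA synthetase in 384-well plates, read by luminescence. Concentration: 30 µM. Higher reads as stronger inhibition, judged from the few compounds that gave an IC50. Of about 69,000 compounds tested this way, about 49 (0.071%) reached 50% or more in at least one test.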
Pks13 thioesterase: 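Enzyme assay of the thioesterase domain of polyketide synthase 13; the read-out is not stated. Target: Polyketide synthase Pks13, Mycobacterium tuberculosis (UniProt I6X8D2). Tested at 30 µM. Higher reads as stronger inhibition (inferred from which compounds were picked for retests). About 67,000 compounds were tested under these conditions; 0.46% (about 300) showed 50% or more at least once.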

For CCS(=O)(=O)NCc1cccnc1N1CCCC(O)C1 (configuration not stated) the result was ClpP1P2: 0.1673%; TcHisRS: 0%; PfKRS1: 4.389%; Pks13 thioesterase: -2.919%. With O=C(N1CCCC1)N1C[C@H]2CC[C@@H]1CN(Cc1ccncc1)C2 the screen gave ClpP1P2: -3.972%; TcHisRS: 1.818%; PfKRS1: -5.91%; Pks13 thioesterase: -6.422%. With Cc1ccc(CN2CCO[C@H]3[C@@H](OCc4cccnc4)CC[C@@H]32)o1 the screen gave ClpP1P2: -4.637%; TcHisRS: 2.21%; PfKRS1: 3.276%; Pks13 thioesterase: 3.534%. With CC(C)(C)C(CCO)NC(=O)Nc1ccccc1 (configuration not stated) the screen gave ClpP1P2: 4.054%; TcHisRS: 10.26%; PfKRS1: 2.713%; Pks13 thioesterase: -11.23%. NC(=O)CN(CC1CCOC1)C1CC1 (configuration not stated) gave ClpP1P2: 10.73%; TcHisRS: 3.333%; PfKRS1: 2.153%; Pks13 thioesterase: -16.15%. Result for COCCC(=O)N1CCC2(CC1)CN(C(C)=O)Cc1ccccc1O2 was ClpP1P2: -12.83%; TcHisRS: 7.576%; PfKRS1: 1.11%; Pks13 thioesterase: 6.398%.

Result for COCC(=O)N1CCC(c2cc(-c3ccc(N)nc3)cc(C)n2)CC1 was ClpP1P2: -18.71%; TcHisRS: 15.41%; PfKRS1: -2.182%; Pks13 thioesterase: -1.721%. For CN(C)Cc1cncc2c1CCN(CC(=O)N(C)C)C2 the result was ClpP1P2: 16.8%; TcHisRS: 5.528%; PfKRS1: -0.02388%; Pks13 thioesterase: -39.44%. Cc1nnc(CCNC2CCN(c3ncnc4c(C)csc34)CC2)s1 gave ClpP1P2: -6.823%; TcHisRS: 2.51%; PfKRS1: 1.795%. CCN1CCCC1CN(CCN(C)C)S(=O)(=O)c1cccc(C#N)c1 (configuration not stated) gave ClpP1P2: -8.691%; TcHisRS: 0%; PfKRS1: -2.284%; Pks13 thioesterase: -13.78%. For Cc1ncsc1CCCn1ccnc1-c1cc2n(n1)CCCNC2 the result was ClpP1P2: -17.96%; TcHisRS: 6.557%; PfKRS1: 6.222%; Pks13 thioesterase: -28.36%. With Cc1nc(CN2CCCC2c2ccsc2)nc2ccccc12 (configuration not stated) the screen gave ClpP1P2: -1.303%; TcHisRS: 10.15%; PfKRS1: 2.274%; Pks13 thioesterase: -3.85%.

For O=S1(=O)CCC(S(=O)(=O)c2cccc(S(=O)(=O)N3CCCC3)c2)C1 (configuration not stated) the result was ClpP1P2: -13.23%; TcHisRS: 6.931%; PfKRS1: -1.109%; Pks13 thioesterase: -2.011%. Result for C[C@]12CCCCN(C(=O)c3ccccn3)[C@H]1CCCC(=O)N2 was ClpP1P2: -3.454%; TcHisRS: 3.731%; PfKRS1: -0.5914%; Pks13 thioesterase: -0.5662%. With COc1c(CNCc2ccc(CN3CCOCC3)cc2)c(C)nn1C the screen gave ClpP1P2: -9.228%; TcHisRS: -0.5435%; PfKRS1: -2.274%; Pks13 thioesterase: 44.55%. COc1ccc(CNCc2c(C)nc3sc(C)cn23)c(OC)c1OC gave ClpP1P2: -4.965%; TcHisRS: 2.174%; PfKRS1: -1.214%; Pks13 thioesterase: -0.2192%. For CCn1ccnc1CN1CCN(Cc2ccc(C)o2)[C@@H]2CS(=O)(=O)C[C@@H]21 the result was ClpP1P2: -7.143%; TcHisRS: 6.468%; PfKRS1: 2.608%; Pks13 thioesterase: -12.19%. Cc1cc(CN(Cc2cccs2)CC2CCCO2)on1 (configuration not stated) gave ClpP1P2: 18.37%; TcHisRS: 3.38%; PfKRS1: -3.734%; Pks13 thioesterase: -12.34%.

With CCCn1nc2c(cc1=O)CN(CCCS(N)(=O)=O)CC2 the screen gave ClpP1P2: 1.146%; TcHisRS: 11.28%; PfKRS1: 15.22%; Pks13 thioesterase: -12.74%. With CCCc1nnc(NC(=O)Cc2c(C)nc(C)[nH]c2=O)s1 the screen gave ClpP1P2: -22.64%; TcHisRS: 5.294%; PfKRS1: 0.507%; Pks13 thioesterase: -10.91%.

2 of the entries, repeated:

* O=C(N1CCCC1)N1C[C@H]2CC[C@@H]1CN(Cc1ccncc1)C2 : ClpP1P2: -3.972%; TcHisRS: 1.818%; PfKRS1: -5.91%; Pks13 thioesterase: -6.422%
* Cc1nc(CN2CCCC2c2ccsc2)nc2ccccc12 (configuration not stated) : ClpP1P2: -1.303%; TcHisRS: 10.15%; PfKRS1: 2.274%; Pks13 thioesterase: -3.85%